Reference: PubChem BioAssay AID504793 (Drosophila RNAi Screening Center, 2011)
Assay: 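Whole-genome screen for parts of the DNA damage checkpoint at G2/M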 (primary screen). Cell system: Drosophila S2R+ cells. Reagents: long dsRNA against Drosophila genes, about 0.25 µg dsRNA per well. Timing: 4 days of dsRNA, then 4 hours of drug before read-out. Conditions: doxorubicin 0.5 µM for 4 hours to cause double-strand breaks, in cells also given a low, harmless dose of dsRNA against nbs to sensitise the assay. Measured: 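Mitotic index as the number of phospho-histone H3-positive cells in each well following doxorubicin, given as raw counts without normalisation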. Scale: mitotic cells: higher = more cells in mitosis, weaker G2 arrest. Hit rule: 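Genes are called active only when high mitotic counts were reproduced with independent dsRNAs and mitosis was checked for delay without damage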. Meaning of the calls: active = confirmed in follow-up tests; inactive = not confirmed.
In all, the deposit lists about 23,000 reagents; shown is a random part of those with a known target gene and a result. Over the whole deposit, 62 (0.27%) are marked active. 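Calls come from follow-up tests whose scores are not deposited, so confirmed genes may have low counts here; counts are not normalised per plate.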 Raw values are not corrected between plates. Unmarked entries are inactive. Reagents against one gene are numbered here. A plus sign joins genes that one reagent is predicted to hit.

no.	predicted target	dsRNA no.	mitotic cells, replicate 1	mitotic cells, replicate 2
1	Gr33a	1	7	
2	CR12628 + Mgstl	1	4	16
3	CR12628 + Mgstl	2	4	
4	Syt14	1	4	
5	CG10748	1	4	
6	CG6961 + CG18259	1	3	
7	CG6961 + CG18259	2	4	
8	CG6961 + CG18259	3	4	
9	Sin1	1	6	
10	CG16922 (retired record)	1	12	
11	CG16922 (retired record)	2	4	
12	ohgt	1	3	
13	ohgt	2	8	
14	CG17059	1	8	
15	St3	1	4	
16	CR42545	1	4	
17	CG32642	1	1	
18	CG32642	2	3	
19	CG33791 + CG12105 + CG18170	1	9	
20	CG10348	1	8	
21	CG10348	2	10	
22	Fer2	1	3	
23	SkpC	1	6	
24	SkpC	2	4	
25	CG43367	1	1	
26	CG43367	2	6	
27	CG43367	3	6	
28	CG43367	4	4	
29	CG14204	1	7	
30	CG14204	2	11	
31	cac	1	11	
32	cac	2	4	
33	cac	3	2	
34	Acp53C14a	1	7	
35	RpL10Aa	1	11	
36	gukh	1	5	
37	gukh	2	4	
38	gukh	3	11	
39	2mit	1	5	
40	2mit	2	1	
41	Theg	1	7	
42	CG13324	1	7	

Part of the list above, reformatted.
{"predicted target":"CG32642","dsRNA no.":1,"mitotic cells, replicate 1":1}
{"predicted target":"CG32642","dsRNA no.":2,"mitotic cells, replicate 1":3}
{"predicted target":"CG33791 + CG12105 + CG18170","dsRNA no.":1,"mitotic cells, replicate 1":9}
{"predicted target":"CG10348","dsRNA no.":1,"mitotic cells, replicate 1":8}
{"predicted target":"CG10348","dsRNA no.":2,"mitotic cells, replicate 1":10}

The listing continues.
no.	predicted target	dsRNA no.	mitotic cells, replicate 1	mitotic cells, replicate 2
43	Sil1	1	6	
44	Osi24	1	6	
45	Ir94b	1	12	
46	CG8839	1	5	
47	Tret1-2	1	4	
48	Tret1-2	2	7	
49	CG8517	1	3	
50	Shab	1	8	
51	Shab	2	6	
52	Shab	3	8	
53	Shab	4	6	
54	CG15211	1	8	
55	gsb	1	6	
56	gsb	2	8	
57	CG32795	1	13	
58	CG32795	2	6	
59	Prosbeta2	1	64	
60	CG8042	1	2	
61	CG8042	2	8	
62	eIF3h	1	5	
63	eIF3h	2	9	
64	Pglym78	1	9	
65	Pglym78	2	4	
66	CG14096	1	3	
67	CG11771	1	12	
68	CG11771	2	5	
69	Nt5a	1	9	
70	mei-217 + mei-218	1	6	
71	CG32945	1	3	
72	ine	1	9	
73	ine	2	4	
74	Rab8	1	12	
75	E(spl)mdelta-HLH	1	12	
